Patent EP2228429A1, “Shading dye and catalyst combination” (Unilever PLC, priority 2009, dated 2010)

Experiment: Example 7: shading of white cotton washed with Persil Colour containing direct violet 51 and bleach system
Procedure: White non-mercerised cotton sheeting was washed at 40°C in 5g/L Persil Colour for 30 minutes with a liquor to cloth ratio of 60:1. Persil Colour is a zeolite/anionic/non-ionic surfactant based washing powder. Direct Violet 51 was added to the powder such that 100 ppb of direct violet 51 was in the wash liquor.
The experiment was repeated with the addition of 10 micromolar catalyst with 10 millimolar peroxide and 2 micromolar catalyst with 2 millimolar peroxide. Following rinsing and drying the colour of the cloth was measured relative to a white cotton control cloth washed without addition of direct violet 51.

In the case of COc1cc(N=Nc2c(C)cc(C)cc2S(=O)(=O)[O-])c(C)cc1N=Nc1c(S(=O)(=O)[O-])cc2cc(Nc3ccccc3)ccc2c1O.[Na+].[Na+] [Direct violet 51], the “fraction of the dye bleached in solution” value (high catalyst concentration (10 micromolar catalyst, 10 millimolar H2O2)) is reported as “approximately 2/3” and the loss of dye (low catalyst concentration (2 micromolar catalyst, 2 millimolar H2O2)) is reported as “no dye is lost”.
